Test results from the supplement of paper PMC12889115.
The list shows a part of the results. These are raw signals, not scaled to a control.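 Primary screen: polymyxin B was added at a level permeabilizing Salmonella outer membranes while sparing inner membranes. DMSO wells, both with and without polymyxin B, established maximum growth. Plate-to-plate variation meant each plate was ranked on its own, and the lowest-OD600 compounds were selected as hits.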

Tested on: Salmonella enterica serovar Typhimurium SL1344
Test: bacterial growth OD600 after 18 h with compound and polymyxin B; higher = more bacterial growth (less inhibition)
Conditions: 50 µM, Mueller-Hinton broth

| SMILES | bacterial growth OD600 (polymyxin B 1 µg/mL) | bacterial growth OD600 (polymyxin B 0.75 µg/mL) |
| --- | --- | --- |
| CCOC(=O)C1(CCOc2ccccc2)CCN(S(=O)(=O)c2ccccc2F)CC1 | 0.683 | – |
| CN(CC1CCCN(CCc2ccccc2F)C1)C(=O)CCc1ccccn1 (stereo not given) | 1.11 | – |
| CCCCC1CN(CCC(=O)NC(c2cccnc2)C(F)(F)F)Cc2ccccc2O1 (stereo not given) | – | 0.725 |
| Cc1cc(F)ccc1NC(=O)CCC1CCCN(C(=O)C2CCCC2)C1 (stereo not given) | 0.834 | – |
| CC#CCN1C(=O)NC(CCCc2ccccc2)(C2CCN(C(=O)c3csnn3)CC2)C1=O (stereo not given) | – | 0.03 |
| COc1cccc(CC(C2CCN(C(=O)CCC3CCCCC3)CC2)N(C)C(=O)c2cccnc2)c1 (stereo not given) | – | 0.007 |
| Oc1ccc(CN2CCC(O)(Cc3cc(-c4ccccc4)no3)CC2)cc1Cl | 0.956 | – |
| Cc1ccccc1CC1(CO)CCCN(Cc2c(C)nn(C)c2Cl)C1 (stereo not given) | 0.926 | – |
| COc1ccc2c(c1)SC(c1ccc(F)c(F)c1)CCN2CC1CC1 (stereo not given) | – | 0.002 |
| COc1ccc(CN2CCC(CO)(CCCc3ccccc3)CC2)c(OC)c1 | 0.877 | – |
| CCCn1c(C)c(CC(=O)NC(C)Cn2cccn2)c2c1CC(C)(C)CC2=O (stereo not given) | 0.636 | – |
| Cc1cc(C)nc(CNc2ccc(C(=O)NCCC3CCCCN3C)cn2)n1 (stereo not given) | – | 0.795 |
| CCc1ccc(CN2CC[C@@H](N3CCN(c4ccccc4F)CC3)[C@H](O)C2)o1 | 0.887 | – |
| O=C1O[C@@H]2CN(c3cnccn3)C[C@@H]2N1C1CCCC1 | – | 0.874 |
| Cc1ncc(CN2CCCC(C(=O)Nc3ccc(-c4cscn4)cc3)C2)n1C (stereo not given) | – | 0.815 |
| COCc1ccc(C(=O)Nc2ccc(-c3nc(CNC(=O)c4cnsn4)c(C)o3)cc2)o1 | – | 0.858 |
| CN1N=C(C(=O)N2CCCC(CCc3cccc(F)c3)C2)CCC1=O (stereo not given) | – | 0.767 |
| CCOC(=O)C1(Cc2ccccc2C)CCCN(S(=O)(=O)c2c(C)nn(C)c2C)C1 (stereo not given) | 0.737 | – |
| O=C(c1ccc(N2CCOCC2)nc1)N1CCC(CCn2cccn2)CC1 | – | 0.774 |
| CCN(CC)C(=O)C1CCCN(C(=O)CC2(c3cccc(F)c3)CC(=O)N(C3CCCC3)C2=O)C1 (stereo not given) | – | 0.729 |

Single values from the results shown:
bacterial growth OD600 (polymyxin B 0.75 µg/mL), Cc1cc(C)nc(CNc2ccc(C(=O)NCCC3CCCCN3C)cn2)n1 (stereo not given) reads 0.795
bacterial growth OD600 (polymyxin B 1 µg/mL), Cc1cc(F)ccc1NC(=O)CCC1CCCN(C(=O)C2CCCC2)C1 (stereo not given) reads 0.834
